# No constants are given. Whether binding was seen depends on the method and setting. Some results given as binding are weak or reduced against the parent protein; the word gives no strength.
# Amino acid sequences for entries named in this document (tags omitted). Residues count along the entry.
# UniProt P10415, residues 1-218: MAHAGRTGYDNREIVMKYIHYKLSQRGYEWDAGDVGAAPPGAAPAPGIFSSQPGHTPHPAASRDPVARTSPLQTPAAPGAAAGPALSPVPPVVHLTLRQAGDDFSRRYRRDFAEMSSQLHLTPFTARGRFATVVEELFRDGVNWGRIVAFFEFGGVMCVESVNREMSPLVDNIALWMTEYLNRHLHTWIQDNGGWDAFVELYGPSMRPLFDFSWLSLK
# Tests used:
# [1] = molecular target: T1, Casp8p41 activator peptide; experiment: SPR, Casp8p41 BH3-like (activator) peptide immobilized, analyte at 800 nM
# T1 sequence (peptide): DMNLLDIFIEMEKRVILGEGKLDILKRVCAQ
# [2] = molecular target: T1, Casp8p41 activator peptide; experiment: SPR, Casp8p41 activator peptide immobilized; bar chart of dissociation constants from three experiments
substance,measurement,setting,value
GST-Bcl-2 (from UniProt P10415 1-218),binding,[1],binds
same,binding,[2],binds

# From patent US20240374532A1
